Source: ChEMBL document CHEMBL3988442, “University of Dundee, Small-Polar-MMV Screening Library” (2021).

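Assay of Toxoplasma gondii numbers, read through their beta-galactosidase reporter with a colour substrate. Compounds at 50 µM. Higher reads as fewer parasites (inferred from which compounds were picked for retests). Of about 18,000 compounds tested this way, about 170 (0.94%) reached 50% or more in at least one test.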

The filed quantity is “Percent Effect” (%).
The controls that fix the scale are not given in the record; negative values are as filed.
This is an unselected part of the compounds tested.

| compound | percent effect |
|---|---|
| `COc1ccnc(CN(CCO)Cc2nccn2C)c1` | 6.621 |
| `Cc1ccc(-c2noc(C(C)N)n2)cc1F` (stereo unspecified) | -1.441 |
| `COc1cccc(CNc2ccccc2CO)n1` | 2.531 |
| `CCc1nc(C#N)c(NCc2ccc3c(c2)OCO3)o1` | 11.53 |
| `CN(CCC(N)=O)Cc1ccc(Br)o1` | 7.439 |
| `CCN1CCN(Cc2ccc(OC)cc2OC)CC1` | -7.335 |
| `CCNC(=O)CCc1nc(-c2ccccc2OC)no1` | 13.74 |
| `O=C(CSc1cnn[nH]1)Nc1ccncc1` | 6.16 |
| `CC(C)N1CCCC(N2CCNCC2)C1=O` (stereo unspecified) | 12.5 |
| `COCC(O)CNc1ccc2ccc(F)cc2n1` (stereo unspecified) | -6.595 |
| `C[C@@H]1CNC[C@H]1C(N)=O` | -3.858 |
| `NC(=O)Cc1ccc(NC(=O)CC(F)(F)F)cc1` | -1.518 |
| `O=C(CO)N1C[C@@H](CN2CCCCCC2)[C@@H](CO)C1` | 16.12 |
| `N[C@@H]1C[C@@H]1N1CCOCC1` | -11.97 |
| `CCC1C(=O)NCCN1C(=O)c1cnsn1` (stereo unspecified) | 39.97 |
| `CCNC(=O)c1ccc(OCCOCC)cc1` | -2.977 |
| `Cc1c(Cl)c(C(F)F)nn1CC(=O)NCC1CCCO1` (stereo unspecified) | -3.672 |
| `CC(C)C(=O)NCCCNC(=O)c1ccc(F)cc1O` | -16.21 |
| `CN1CCC(N(C)C(=O)Cc2ccc(F)cc2)CC1` | -18.01 |
| `Cc1cc(CN(C)C(=O)C2CCCCCN2C)no1` (stereo unspecified) | -2.057 |
| `Cc1cc(C)n(CC(C)CNC(=O)CCCN(C)C)n1` (stereo unspecified) | 8.853 |
| `CN1C[C@H]2NCCC[C@H]2C1=O` | 28.27 |
| `Cn1cc(C(=O)NCCc2noc(C3CC3)n2)cn1` | -7.141 |
| `Cc1ccc(OC2CN(C(=O)[C@H](N)C(C)C)C2)cc1` | 2.013 |
| `NCC(=O)N1CCCC(CCc2c(F)cccc2F)C1` (stereo unspecified) | 22.14 |
| `OCC1(O)CCOCC1` | -23.62 |
| `CN1CCCN(C(=O)NCCCN(C)S(C)(=O)=O)CC1` | 2.714 |
| `c1ccc(C2CNCCCO2)cc1` (stereo unspecified) | 49.14 |
| `CN(C)c1ccc(NC(=O)C2CCC2)cn1` | -5.38 |
| `NCc1ccnc(-n2ccnc2)c1` | 7.529 |
| `N#CCSCCCSc1cnn[nH]1` | 19.68 |
| `Cn1ccnc1SCC(=O)NC(C)(C)C` | -2.416 |
| `NC(Cc1ccccn1)c1cccnc1` (stereo unspecified) | 2.438 |
| `COCCCOc1ccc(N(C)C(N)=O)cc1` | -7.724 |
| `NCCCN1CCN(c2ccccc2F)CC1` | 14.6 |
| `CCSC1CCCCN(CCCNC(C)=O)C1` (stereo unspecified) | -6.47 |
| `O=C(CN1CCOCC1)NCCc1noc(C2CC2)n1` | -1.953 |
| `Cc1ccccc1CN(C)CC(=O)N1CCN(C)CC1` | 12.1 |
| `Cc1ccc2nc(COC(=O)C3CCC3)cc(=O)n2c1` | 10.23 |
| `COc1ccc2[nH]c(CCCO)nc2c1` | 1.847 |
| `CN(c1ccccc1C(N)=O)S(=O)(=O)c1cccs1` | -2.225 |
| `Ic1cnnn1C1CCNCC1` | 2.24 |
| `CN(C)CC1(O)CCCN(C(=O)c2n[nH]c(N)c2Cl)C1` (stereo unspecified) | -1.993 |
| `Cc1nn(C)c(Cl)c1C(=O)N1CCC(C(N)=O)CC1` | -19.33 |
| `CC[C@@H](O)CN1CCN(c2cc(OC)ccn2)CC1` | -9.366 |
| `N#Cc1cccc(CN2CCCCC2CO)c1` (stereo unspecified) | 0.9982 |
| `O=C(C1CCCO1)N1CCN(c2cncc(Cl)n2)CC1` (stereo unspecified) | 17.9 |
| `c1ccc(CCNC2CC2)nc1` | 19.24 |
| `O=C(c1ccc(Br)o1)N1CCNCC1` | 2.311 |
| `CC(=O)N1CCN(CCSc2ccccc2)CC(O)C1` (stereo unspecified) | -6.219 |
| `c1ccc(COCCc2noc(C3CNC3)n2)cc1` | 62.37 |
| `NCc1ccc2occc2c1` | 13.17 |
| `CC(C)[C@@H](CO)NCc1ccc(S(=O)(=O)N(C)C)cc1` | -2.717 |
| `NC1CCCOc2ccc(F)cc21` (stereo unspecified) | 0.28 |
| `CNC(=O)CNC(=O)c1cc2cc(C)ccc2nc1C` | 5.352 |
| `NS(=O)(=O)NCC1CCCN(CCc2cccs2)C1` (stereo unspecified) | -7.437 |
| `Cc1cc(C(=O)NCc2ncnn2C)c(C)cc1Br` | 0.687 |
| `CC(c1ccncc1)N(C)C(=O)c1c[nH]c(=O)c(Cl)c1` (stereo unspecified) | -13.92 |

6 of the entries, repeated:

Result for c1ccc(COCCc2noc(C3CNC3)n2)cc1 was 62.37%.
Result for CN(c1ccccc1C(N)=O)S(=O)(=O)c1cccs1 was -2.225%.
Result for c1ccc(CCNC2CC2)nc1 was 19.24%.
Result for CC(C)N1CCCC(N2CCNCC2)C1=O (stereo unspecified) was 12.5%.
Result for CCc1nc(C#N)c(NCc2ccc3c(c2)OCO3)o1 was 11.53%.
Result for CC(C)C(=O)NCCCNC(=O)c1ccc(F)cc1O was -16.21%.